At least one peptide structure holds a part that was inferred or is arguable (an end, a ring closure or a residue). Peptide text beside a SMILES is read from it. * marks the point of attachment. Palmitoyl = CCCCCCCCCCCCCCCC(=O)*
How the values were obtained:
prostate cancer cells = assay: Radiosensitisation by free pepducin as single-agent, clonogenic survival assay; format: cell-based; details: 800 nM as a single-agent, 24 hrs prior to irradiation (0-6 Gy), kV energies
PC3 = assay: Radiosensitisation, clonogenic survival assay; format: cell-based; details: doses of 2.5 Gy, kV energies

CCCCCCCCCCCCCCCC(=O)N[C@@H](CCCNC(=N)N)C(=O)N[C@H](C(=O)N[C@@H](CC(C)C)C(=O)N[C@@H](Cc1ccccc1)C(=O)N[C@@H](CCCCN)C(=O)N[C@@H](C)C(=O)N[C@@H](Cc1c[nH]cn1)C(=O)N[C@@H](CCSC)C(=O)NCC(=O)N[C@@H](CCC(N)=O)C(=O)N[C@@H](CCCCN)C(=O)N[C@@H](Cc1c[nH]cn1)C(=O)N[C@@H](CCCNC(=N)N)C(=O)N[C@@H](CS)C(N)=O)[C@@H](C)O [SEQ ID 3, Pal-RTLFKAHMGQKHRC-NH2] (Palmitoyl-RTLFKAHMGQKHRC-NH2)
dose enhancement (prostate cancer cells): small but nonsignificant dose enhancement
PC3 cell sensitivity to radiotherapy (PC3): 1.2 fold
